# Measured values as given in EP0417819A1 (AKZO N.V., priority 1989, dated 1991).
# Square brackets hold non-standard residues; d marks the D form. * marks the point of attachment. Cha = N[C@@H](CC1CCCCC1)C(=O)O; Nle = CCCC[C@H](N)C(=O)O; Cbz = O=C(OCc1ccccc1)*; Boc = CC(C)(C)OC(=O)*; OtBu = CC(C)(C)O*; NHNH2 = NN*
# Test: general procedure: solution-phase peptide synthesis; DCC/HOBt; azide method
# Conditions: coupling step, acetate (ion exchanger in the acetate form)
row,Substance,step yield
1,Cbz-SQTPLV[dT][Cha]-OtBu,67.9%
2,Cbz-TPLVTL-OtBu,93%
3,Cbz-TSE(OtBu)[Nle]-OMe,89.1%
4,Boc-TSE(OtBu)K(Ac)SQTPLV-OH,44.8%
5,Cbz-SE(OtBu)TPLVTL-OtBu,48%
6,Cbz-TSE(OtBu)K(Ac)-OMe,84.6%
7,Cbz-PLVTL-OtBu,80%
8,Boc-Thr-Ser-Glu(OtBu)-Lys(Ac)-Ser-Gln-Thr-OBZ1,70.4%
9,H-Δ Pro-Leu-Val-Thr-Leu-OtBu,73.5%
10,Cbz-E(OtBu)TPLVTL-OtBu,"76,7%"
11,Cbz-SQTPLV-OtBu,48.0%

# Same assay, conditions: coupling step, acetate (ion exchanger in the acetate form); run 1
row,Substance,step yield
1,Boc-TPE(OtBu)K(Ac)-OMe,68.2%

# Same assay, conditions: coupling step, acetate (ion exchanger in the acetate form); run 2
row,Substance,step yield
1,Boc-TPE(OtBu)K(Ac)-OMe,79.3%

# Same assay, conditions: late stage modification step, acetate (ion exchanger in the acetate form)
row,Substance,step yield
1,Cbz-TSE(OtBu)[Nle]-NHNH2,64.1%
2,Cbz-TSE(OtBu)K(Ac)-NHNH2,67.8%
3,Cbz-SQTPLV-OH,84.0%

# Same assay, conditions: late stage modification step, acetate (ion exchanger in the acetate form); run 1
row,Substance,step yield
1,Boc-TPE(OtBu)K(Ac)-NHNH2,96.7%

# Same assay, conditions: late stage modification step, acetate (ion exchanger in the acetate form); run 2
row,Substance,step yield
1,Boc-TPE(OtBu)K(Ac)-NHNH2,50%
